According to EP4606822A1:
Changes are numbered by the printed parent chain. No constants are given. Whether binding was seen depends on the method and setting. Some results given as binding are weak or reduced against the parent protein; the word gives no strength.

The chains behind the UniProt entries cited, without tags or fusion partners. Residues count along the entry.
UniProt P21860, residues 20-1342: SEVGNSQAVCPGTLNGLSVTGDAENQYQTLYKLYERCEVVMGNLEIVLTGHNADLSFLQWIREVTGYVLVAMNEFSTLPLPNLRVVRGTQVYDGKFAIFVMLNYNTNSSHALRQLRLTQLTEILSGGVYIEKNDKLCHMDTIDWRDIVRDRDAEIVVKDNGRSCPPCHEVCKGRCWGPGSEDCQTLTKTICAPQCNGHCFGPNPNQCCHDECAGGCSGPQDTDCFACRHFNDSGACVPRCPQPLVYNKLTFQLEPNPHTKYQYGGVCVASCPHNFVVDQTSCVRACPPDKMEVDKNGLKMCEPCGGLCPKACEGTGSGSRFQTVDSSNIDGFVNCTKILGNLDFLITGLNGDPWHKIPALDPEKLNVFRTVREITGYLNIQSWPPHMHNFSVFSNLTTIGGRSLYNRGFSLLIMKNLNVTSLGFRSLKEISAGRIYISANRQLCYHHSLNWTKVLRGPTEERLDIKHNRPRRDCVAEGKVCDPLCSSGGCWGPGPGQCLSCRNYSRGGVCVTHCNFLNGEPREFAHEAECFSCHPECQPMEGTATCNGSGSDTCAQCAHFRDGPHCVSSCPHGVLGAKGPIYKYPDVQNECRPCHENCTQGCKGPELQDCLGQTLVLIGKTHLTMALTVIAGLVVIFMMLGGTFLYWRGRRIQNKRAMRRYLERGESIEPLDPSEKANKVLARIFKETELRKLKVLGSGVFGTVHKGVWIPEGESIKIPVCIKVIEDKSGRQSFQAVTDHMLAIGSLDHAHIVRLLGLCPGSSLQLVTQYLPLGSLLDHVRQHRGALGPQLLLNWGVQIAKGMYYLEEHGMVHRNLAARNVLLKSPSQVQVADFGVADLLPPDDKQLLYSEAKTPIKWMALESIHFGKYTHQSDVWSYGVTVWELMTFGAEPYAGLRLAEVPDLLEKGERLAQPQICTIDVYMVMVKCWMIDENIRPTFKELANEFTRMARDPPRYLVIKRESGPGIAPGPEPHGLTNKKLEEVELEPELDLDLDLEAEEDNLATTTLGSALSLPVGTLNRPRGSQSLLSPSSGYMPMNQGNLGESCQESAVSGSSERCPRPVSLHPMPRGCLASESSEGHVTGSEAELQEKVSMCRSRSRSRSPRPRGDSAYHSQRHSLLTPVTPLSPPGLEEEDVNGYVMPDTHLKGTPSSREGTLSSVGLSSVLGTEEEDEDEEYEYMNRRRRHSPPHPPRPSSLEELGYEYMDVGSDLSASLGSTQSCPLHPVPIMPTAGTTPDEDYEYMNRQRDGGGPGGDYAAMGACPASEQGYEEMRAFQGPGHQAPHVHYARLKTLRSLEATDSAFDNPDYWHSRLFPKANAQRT

Target: HER3 on human tumor cell lines (human) (UniProt P21860)
Assay: flow cytometry on MDA-MB-453 and SW620 cells

B1: humanized 4O3 antibody L2H4 (antibody, human IgG1, kappa, V domains shown)
VH: QVQLQESGPGLVKPSQTLSLTCTVSGISITTGNYRWSWIRQHPGKKLEWIGNIYYSGAITYNPSLKSRVTISRDTSKNQFFLKLSSVTAADTAVYYCARDGGTVVEGWYFDVWGKGTTVTVSS
VL: EIVLTQSPDTQSVTPKEKVTITCRASQSISDYLHWYQQKPDQSPKLLIKYASQSISGVPSRFSGSGSGTDFTLTINSLEAEDVGLYYCQSGRSFPLTFGGGTKVEIKR
For B1, the binding was “binds”.

B2: humanized 4O3 antibody L4H4 (antibody, human IgG1, kappa, V domains shown)
VH: B1 VH
VL: B1 VL with D41G, S43A, V83F
With B2 the binding was “binds”.
